Source: PubChem BioAssay AID1508588 (Peter MacCallum Cancer Centre, 2020)
The whole screen tested about 18,000 reagents; shown is a random part of them. Over the whole deposit, 790 (4.4%) were called active. 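Calls rest on a combination of fold-change classes in drug and vehicle arms, not all shown here.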 Reagent sequences are not shown.

Screen: 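Which gene losses make BRAF-mutant melanoma cells more responsive to vemurafenib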 (primary screen)
System: human WM266.4 melanoma cells (BRAF V600 mutant)
Reagent: siRNA pool against human genes, 40 nM
Time to read-out: 96 h from transfection to read-out
Challenge: vemurafenib 300 nM (about IC25), added 48 h after transfection, for 48 h; comparison arm got DMSO vehicle only
Measured: 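Cell gain (DAPI nuclei at end minus before drug, mean of two replicates) and medium lactate by absorbance per cell, both as ratio to non-targeting siRNA, also grouped into fold-change classes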
Direction: cell gain with vemurafenib: higher = more cell gain than with non-targeting siRNA; lactate per cell with vemurafenib: higher = more lactate made per cell
Rule for the call: 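Enhancement is called by pairing each knock-down's vehicle-arm and drug-arm fold-change classes for viability or glycolysis; which class combinations qualify is not given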
Calls: active = enhances vemurafenib effect; inactive = no enhancement seen

For CDK5R2 (GeneID 8941), what was measured?
cell gain with vemurafenib: 0.7; lactate per cell with vemurafenib: 0.87; Outcome: inactive

With MED27 (GeneID 9442), what does the deposit list?
cell gain with vemurafenib: 0.98; lactate per cell with vemurafenib: 1.04; Outcome: inactive

Which result is listed for NCOR1 (GeneID 9611)?
cell gain with vemurafenib: 0.46; lactate per cell with vemurafenib: 1.16; Outcome: inactive

What did the screen give for OR5K3 (GeneID 403277)?
cell gain with vemurafenib: 1; lactate per cell with vemurafenib: 0.67; Outcome: inactive

For PCDH12 (GeneID 51294), what was measured?
cell gain with vemurafenib: 0.38; lactate per cell with vemurafenib: 0.48; Outcome: active

For USP37 (GeneID 57695), what does the deposit list?
cell gain with vemurafenib: 0.82; lactate per cell with vemurafenib: 0.42; Outcome: active

How did the screen score NLRP2 (GeneID 55655)?
cell gain with vemurafenib: 0.5; lactate per cell with vemurafenib: 1.46; Outcome: inactive

What is on record for CDYL2 (GeneID 124359)?
cell gain with vemurafenib: 0.64; lactate per cell with vemurafenib: 1.23; Outcome: inactive

With SLC17A3 (GeneID 10786), what was measured?
cell gain with vemurafenib: 0.31; lactate per cell with vemurafenib: 1.72; Outcome: inactive

Reprinted from above for reference:
USP37 (GeneID 57695) — cell gain with vemurafenib = 0.82; lactate per cell with vemurafenib = 0.42; Outcome = active
NLRP2 (GeneID 55655) — cell gain with vemurafenib = 0.5; lactate per cell with vemurafenib = 1.46; Outcome = inactive
CDYL2 (GeneID 124359) — cell gain with vemurafenib = 0.64; lactate per cell with vemurafenib = 1.23; Outcome = inactive

The list goes on:
With AKIRIN2 (GeneID 55122), how do the results read?
cell gain with vemurafenib: 0.27; lactate per cell with vemurafenib: 1.36; Outcome: inactive

With GXYLT2 (GeneID 727936), what does the deposit list?
cell gain with vemurafenib: 0.71; lactate per cell with vemurafenib: 0.74; Outcome: inactive

With JOSD1 (GeneID 9929), what does the deposit list?
cell gain with vemurafenib: 0.67; lactate per cell with vemurafenib: 0.7; Outcome: inactive

Which result is listed for POTEH (GeneID 23784)?
cell gain with vemurafenib: -0.12; lactate per cell with vemurafenib: 2.63; Outcome: inactive

With P2RY10 (GeneID 27334), what was measured?
cell gain with vemurafenib: 0.8; lactate per cell with vemurafenib: 0.84; Outcome: inactive

What did the screen give for SLC25A19 (GeneID 60386)?
cell gain with vemurafenib: 1.35; lactate per cell with vemurafenib: 0.56; Outcome: inactive

How did the screen score HDAC7 (GeneID 51564)?
cell gain with vemurafenib: 0.78; lactate per cell with vemurafenib: 0.76; Outcome: inactive

With ABCA13 (GeneID 154664), how do the results read?
cell gain with vemurafenib: 0.69; lactate per cell with vemurafenib: 0.46; Outcome: inactive

For LRRC52 (GeneID 440699), how do the results read?
cell gain with vemurafenib: 0.67; lactate per cell with vemurafenib: 0.95; Outcome: inactive

For MYL5 (GeneID 4636), what was measured?
cell gain with vemurafenib: -0.04; lactate per cell with vemurafenib: 0.6; Outcome: inactive

What is on record for HRG (GeneID 3273)?
cell gain with vemurafenib: 0.4; lactate per cell with vemurafenib: 1.24; Outcome: inactive

For HMCN2 (GeneID 256158), what does the deposit list?
cell gain with vemurafenib: 0.82; lactate per cell with vemurafenib: 0.87; Outcome: inactive

For KIN (GeneID 22944), what was measured?
cell gain with vemurafenib: 1.08; lactate per cell with vemurafenib: 0.59; Outcome: inactive

What did the screen give for TMCO5A (GeneID 145942)?
cell gain with vemurafenib: 0.55; lactate per cell with vemurafenib: 1.6; Outcome: inactive

What did the screen give for SPTLC2 (GeneID 9517)?
cell gain with vemurafenib: 0.58; lactate per cell with vemurafenib: 0.98; Outcome: inactive

For ATP2A3 (GeneID 489), what does the deposit list?
cell gain with vemurafenib: 0.55; lactate per cell with vemurafenib: 0.84; Outcome: inactive

With ARL13A (GeneID 392509), what does the deposit list?
cell gain with vemurafenib: 1.04; lactate per cell with vemurafenib: 1; Outcome: inactive

What did the screen give for NHERF1 (GeneID 9368)?
cell gain with vemurafenib: 0.4; lactate per cell with vemurafenib: 1.47; Outcome: inactive
